Results from paper PMC6350196 (Drug Metabolism Letters, 2018).

Assay: QSRR estimation of CHIn+Fbt and CHIbt from LC retention times
Assay type: physicochemical
Conditions: predicted (QSRR, equation 13); parent-drug label = average for that drug

Compound: CC(C)c1c(C(=O)Nc2ccccc2)c(-c2ccccc2)c(-c2ccc(F)cc2)n1CC[C@@H](O)C[C@@H](O)CC(=O)O [atorvastatin]
- CHIbt, lactonization (acid dehydration to lactone): 6.2
